The values that follow come from patent EP4644419A1.

Chains of the proteins cited; added tags and fusions are not shown. Lines headed by an entry give the natural chain unless they say otherwise; changes in a name come on top.
UniProt Q6DKI7: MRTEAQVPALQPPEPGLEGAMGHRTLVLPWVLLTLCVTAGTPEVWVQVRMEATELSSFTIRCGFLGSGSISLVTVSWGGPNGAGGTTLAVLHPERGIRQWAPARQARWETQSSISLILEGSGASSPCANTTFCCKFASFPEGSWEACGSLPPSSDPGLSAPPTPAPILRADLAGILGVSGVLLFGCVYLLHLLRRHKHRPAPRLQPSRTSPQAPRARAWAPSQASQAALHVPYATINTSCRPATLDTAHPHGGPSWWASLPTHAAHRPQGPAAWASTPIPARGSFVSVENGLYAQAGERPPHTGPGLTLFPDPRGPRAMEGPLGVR

Test [1] concerns the target human CD112R antigen protein huCD112R-His (Acro Biosysterm, PVG-H52H4) (human) (UniProt Q6DKI7). Put plainly: ELISA, CD112R-His coated on plate. A general note: ELISA stands for enzyme-linked immunosorbent assay.
Test [2] shares this target. The test is described as follows: ELISA, huCD112R-His coated on plate.
The target of test [3] is monkey antigen protein (monkey CD112R, Uniprot ID: A0A2K5WVV8) (monkey). Put plainly: ELISA, monkey antigen protein.

No constants are given. Whether binding was seen depends on the method and setting. A result given as binding can be weak or reduced; the word gives no strength.

B1: anti-CD112R antibody CHA.7.518 (antibody, V domains shown)
VH: QVQLVQSGAEVKKPGASVKVSCKASGYTFTDYNINWVRQAPGQGLEWMGYIYPYIGGSGYAQKFQGRVTMTRDTSTSTVYMELSSLRSEDTAVYYCAREDKTARNAMDYWGQGTLVTVSS
VL: DIQMTQSPSSLSASVGDRVTITCRVSENIYSNLAWYQQKPGKAPKLLIYEATNLAEGVPSRFSGSGSGTDFTLTISSLQPEDFATYYCQHFWGTPYTFGQGTKLEIKR
For the molecule B1, the binding result in test [1] was “binds”.

B2: C44 (antibody, human IgG1, kappa, V domains shown)
VH: QVQLQQSGPELMKPGASLKISCKASGYTFTDSYINWVKQRPGQGLEWIGWIFPGSGSTYYNEKFKGTATLTVDKSSSTAYMLLSSLTSEDSAAYFCARDGGLRGPFDYWGQGTTLTVSS
VL: DIQMTQSPSSLSASLGGKVTITCKASQDINKYIAWYQHKPGKGPRLLIHYTSTLQSGIPSRFSGSGSGRDYFFSISNLESEDIATYYCLQYDHLLTFGGGTKLEIKR
Regarding B2, the binding entry in test [2] and in test [3] was “binds” each time.
